# What was measured:
# Type in all cases: cell-based
# KB-C-2 = experiment: SRB cell viability, MDR1-overexpressing cells; details: Homo sapiens, KB-C2, Table S1
# Procedure: (§1) human epidermoid carcinoma cell line and KB-C2, an isogenic MDR1- overexpressing drug-resistant cell line, were kindl y provided b y Dr. Amit K Tiwari, the Universit y of Toledo, OH. […]
# (§2) Cell line authentication was carried out by Genetica DNA
# (§3) Laboratories (Burlington, NC) using a short tandem repeat (STR) profiling method (March 2015; […]
# (§4) Cell viability, com binational i ndex and cell synchronization
# (§5) Cell viability and proliferation were ex amined using a s ulforhodamine B (SRB) assa y as described previousl y (Hu et al., 2008). IC 50 values were calculat ed from si gmoidal dose-response cu rves gen erat ed b y at least two indepen dent ex periments , with each quadruplicate samples, using GraphPad Prism v.5.04 software (GraphPad Software, Inc, La J olla, CA). […]
# (§6) 737/ABT-199 w ere us ed at or below IC 50 . […]
# (§7) previousl y described (Chou, 2006). […]
# (§8) (Romero and Lee, 2008), and the cells were r eleas ed in to complete medium in the absence (sham) or presence of compound(s). […]
# KB-C-1 = experiment: SRB cell viability, parental cells; details: Homo sapiens, KBC-1, Table S1
# Procedure: as §1, §2, §3, §4, §5, §6, §7, §8
# SW-1271 = experiment: SRB cell viability; details: SW1271, Table S1
# Procedure: as §2, §3, §4, §5, §6, §7, §8
# H69AR = experiment: SRB cell viability, multidrug-resistant cells; details: Homo sapiens, Table S1
# Procedure: as §2, §3, §4, §5, §6, §7, §8
smiles,measurement,setting,value
COc1cc2c(c(OC)c1OC)-c1ccc(OC)c(=O)cc1[C@@H](NC(C)=O)CC2 [colchicine],IC50,KB-C-2,83.5 ± 7.22 nM
same,IC50,KB-C-1,5.36 ± 0.54 nM
same,IC50,SW-1271,4.84 ± 0.8 nM
same,IC50,H69AR,23 ± 3.63 nM

# Source: publication PMC5578999, “Novel quinolone chalcones targeting colchicine-binding pocket kill multidrug-resistant cancer cells by inhibiting tubulin activity and MRP1 function” (Scientific Reports, 2017)
